Reference: US20220023454A1, “PHOTODYNAMIC METHOD TO DECONTAMINATE SURFACES” (priority 2020, published 2022)
Some of these results come from one statement about several compounds together. For at least one compound, name, drawing or mass did not settle the structure.

Key:
feline calicivirus (FCV) = experiment: Photodynamic inactivation of FCV in water with photosensitizer and light; settings: exposure to LED-blue light for 3 to 10 min
Procedure: (§1) The inactivation of HuNoV surrogates (e.g., feline calicivirus (FCV) and Tulane virus (TuV)) was studied, by exposure to light in the presence of photosensitizer dyes in water, FCV and TuV were mixed with different concentrations (10, 25, and 50 μM) of three different PS (Rose Bengal (RB), Phloxine B (Ph-B) and chlorophyllin) and then exposed to light for a period of time, e.g., 1, 3, 5, or 10 minutes. While not being limited to a mode of action, capsid integrity and/or genome integrity may be impacted by the exposure of viruses to light in the presence of the PS.
(§2) Shellfish and fresh produce are the most frequent foods implicated in human norovirus (HuNoV) outbreaks in the US. Decontamination of virus-contaminated waters used in depuration of oysters, clams or mussels, and in post-harvest washing of fresh produce, is a mitigation strategy for this human biothreat risk. […] Although the PDT has been studied extensively for bacterial inactivation, studies on its use for viral inactivation in food and water are scarce. Inactivation of >4 log TCID50 of two HuNoV surrogates (feline calicivirus (FCV) and Tulane virus (TuV)) in water was observed upon exposure to LED-blue light for 3 to 10 min using Rose Bengal (RB) or Phloxine-B (Ph-B) as photosensitizers. […]

Tulane virus (TuV) = experiment: Photodynamic inactivation of TuV in water with photosensitizer and light; settings: exposure to LED-blue light for 3 to 10 min
Procedure: as §1, §2

In the case of `O=C1OC2(c3cc(I)c(O)c(I)c3Oc3c2cc(I)c(O)c3I)c2c(Cl)c(Cl)c(Cl)c(Cl)c21` [RB, Rose Bengal], the “Inactivation of FCV in water” value (feline calicivirus (FCV)) is reported as over 4 log TCID50 and the “Inactivation of TuV in water” value (Tulane virus (TuV)) is reported as over 4 log TCID50.
